Assay results from PubChem BioAssay AID206 (DTP/NCI, 2004).
The list shows only some results of the screen, not a fair sample: it gathers some chemical classes. Not every dose and run of a compound is shown. T/C gives the treated animals as a percentage of the vehicle group. Schedule codes are those of the source, read here as Q, the interval in days (D) or hours (H), X, the number of doses. Some entries show no survivor count and are marked so; the dose need not have been tolerated. Some doses were run more than once; the values are given in rising order.

Tested on: nude mice, HT29 intrarenal xenograft, tumor weight T/C
Assay: NCI In Vivo Anticancer Drug Screen. Data for tumor model HT29;CX-1 Human Adenocarcinoma (MER+) (intrarenal inoculation) in NU/NU Swiss (nude) mice
Conditions: T/C endpoint: mean tumor weight change, higher T/C = larger tumour
Description: The antitumor activity of compounds was measured in mice bearing transplantable tumors. Survival or tumor size were measured and the results are expressed as the measurement made in the treated group (T) divided by the measurement made in the vehicle treated control group (C). The tumor model used in this assay is HT29;CX-1 Human Adenocarcinoma (MER+) (intrarenal inoculation) in NU/NU Swiss (nude) mice

[1] = dose: 0.12 mg/kg/injection, schedule: Q01DX010 (sc), vehicle: Klucel (hydroxypropylcellulose) (HPC), evaluated on day 20
[2] = dose: 0.25 mg/kg/injection, schedule: Q01DX010 (sc), vehicle: Klucel (hydroxypropylcellulose) (HPC), evaluated on day 20
[3] = dose: 0.5 mg/kg/injection, schedule: Q01DX010 (sc), vehicle: Klucel (hydroxypropylcellulose) (HPC), evaluated on day 20

## CC1=CC2OC3CC4OC(=O)/C=C/C=C/C(C(C)O)OCC/C(C)=C/C(=O)OCC2(CC1)C4(C)C31CO1 (stereo unspecified)
dose: 6.25 mg/kg/injection, schedule: Q01DX010 (sc), vehicle: saline with Tween-80, evaluated on day 11
  T/C: 145 % of control [survivor count not shown]
dose: 12.5 mg/kg/injection, schedule: Q01DX010 (sc), vehicle: saline with Tween-80, evaluated on day 11
  T/C: 108 % of control [survivor count not shown]
dose: 25.0 mg/kg/injection, schedule: Q01DX010 (sc), vehicle: saline with Tween-80, evaluated on day 11
  T/C: 99 % of control [survivor count not shown]

## C[C@@H](O)[C@H]1/C=C/C=C\C(=O)O[C@@H]2C[C@H]3O[C@@H]4[C@@H]5OC5(C)CCC4(COC(=O)[C@H]4O[C@]4(C)[C@@H](O)CO1)[C@]2(C)[C@]31CO1 (stereo partly specified)
dose: 2.5 mg/kg/injection, schedule: Q01DX010 (sc), vehicle: saline + alcohol, evaluated on day 20
  T/C: 110 % of control [survivor count not shown]
dose: 5.0 mg/kg/injection, schedule: Q01DX010 (sc), vehicle: saline + alcohol, evaluated on day 20
  T/C: 157 % of control [survivor count not shown]
dose: 20.0 mg/kg/injection, schedule: Q01DX010 (sc), vehicle: saline + alcohol, evaluated on day 20
  T/C: 190 % of control [survivor count not shown]

## C=C(C)C(=O)OCC12CCC(C)=CC1OC1C(=O)C(OC(=O)C(=C)C)C2(C)C12CO2 (stereo unspecified)
dose: 2.0 mg/kg/injection, schedule: Q04DX004 (sc), vehicle: saline with Tween-80, evaluated on day 15
  T/C: 8 [survivor count not shown] and 43 % of control [survivor count not shown]
dose: 4.0 mg/kg/injection, schedule: Q04DX004 (sc), vehicle: saline with Tween-80, evaluated on day 15
  T/C: 34 [survivor count not shown] and 56 % of control [survivor count not shown]

## CC1=C[C@H]2O[C@@H]3[C@H](O)[C@@H](O)[C@](C)([C@@]2(CO)CC1)[C@@]31CO1
dose: 1.0 mg/kg/injection, schedule: Q01DX010 (sc), vehicle: saline, evaluated on day 20
  T/C: 66 % of control [survivor count not shown]
dose: 2.0 mg/kg/injection, schedule: Q01DX010 (sc), vehicle: saline, evaluated on day 20
  T/C: 156 % of control [survivor count not shown]

## CC1=CC2OC3CC4OC(=O)/C=C/C=C/C(C(C)O)OCC(O)C(C)CC(=O)OCC2(CC1O)C4(C)C31CO1 (stereo unspecified)
dose: 0.06 mg/kg/injection, schedule: Q01DX010 (sc), vehicle: Klucel (hydroxypropylcellulose) (HPC), evaluated on day 20
  T/C: 52 % of control [survivor count not shown]
[1]
  T/C: 57 % of control [survivor count not shown]
[2]
  T/C: 45 [survivor count not shown], 65 [survivor count not shown], 120 % of control [survivor count not shown]
[3]
  T/C: 15 [survivor count not shown], 59 [survivor count not shown], 111 [survivor count not shown], 160 % of control [survivor count not shown]
dose: 1.0 mg/kg/injection, schedule: Q01DX010 (sc), vehicle: Klucel (hydroxypropylcellulose) (HPC), evaluated on day 20
  T/C: 7 [survivor count not shown] and 76 % of control [survivor count not shown]

## CC1=C[C@H]2O[C@@H]3C[C@H]4OC(=O)/C=C\C=C\C(C(C)O)OCC(O)C(C)CC(=O)OC[C@@]2(C[C@@H]1O)[C@]4(C)[C@@]31CO1 (stereo partly specified)
[1]
  T/C: 23 % of control [survivor count not shown]
[2]
  T/C: 54 % of control [survivor count not shown]
[3]
  T/C: 23 % of control [survivor count not shown]

## CC1=C[C@H]2O[C@@H]3C[C@H]4OC(=O)/C=C\C=C\C(C(C)O)OCC[C@@H](C)[C@H](O)C(=O)OC[C@@]2(CC1)[C@]4(C)[C@]31CO1 (stereo partly specified)
dose: 0.38 mg/kg/injection, schedule: Q04DX004 (sc), vehicle: saline with Tween-80, evaluated on day 15
  T/C: 149 % of control [survivor count not shown]
dose: 3.0 mg/kg/injection, schedule: Q04DX004 (sc), vehicle: saline with Tween-80, evaluated on day 15
  T/C: 328 % of control [survivor count not shown]

## CC(=O)OC[C@]12CC(=O)C(C)=C[C@H]1O[C@@H]1C(=O)[C@@H](OC(C)=O)[C@@]2(C)[C@@]12CO2
dose: 2.0 mg/kg/injection, schedule: Q04DX004 (sc), vehicle: water, evaluated on day 15
  T/C: 109 % of control [survivor count not shown]
dose: 4.0 mg/kg/injection, schedule: Q04DX004 (sc), vehicle: water, evaluated on day 15
  T/C: 62 % of control [survivor count not shown]
dose: 8.0 mg/kg/injection, schedule: Q04DX004 (sc), vehicle: water, evaluated on day 15
  T/C: 86 % of control [survivor count not shown]

## CC(=O)OCC12CCC(C)=CC1OC1C(O)C(OC(C)=O)C2(C)C12CO2 (stereo unspecified)
dose: 0.13 mg/kg/injection, schedule: Q01DX010 (sc), vehicle: saline, evaluated on day 11
  T/C: 53 % of control [survivor count not shown]
dose: 0.25 mg/kg/injection, schedule: Q01DX010 (sc), vehicle: saline, evaluated on day 11
  T/C: 80 % of control [survivor count not shown]
dose: 0.5 mg/kg/injection, schedule: Q01DX010 (sc), vehicle: saline, evaluated on day 11
  T/C: 56 % of control [survivor count not shown]
